Experimental data as given in article PMC4141763, “Reciprocal Activating Crosstalk between c-Met and Caveolin 1 Promotes Invasive Phenotype in Hepatocellular Carcinoma” (PLoS ONE, 2014).
Results are given in words; binding and its absence hold for the method and conditions named. In cells and extracts the contact can be indirect. Some entries that bind do so weakly or less than the wild type.

Protein sequences, listed by entry. Tags and fused reporters are not part of them. Residues count along the entry.
UniProt P08581, residues 25-1390: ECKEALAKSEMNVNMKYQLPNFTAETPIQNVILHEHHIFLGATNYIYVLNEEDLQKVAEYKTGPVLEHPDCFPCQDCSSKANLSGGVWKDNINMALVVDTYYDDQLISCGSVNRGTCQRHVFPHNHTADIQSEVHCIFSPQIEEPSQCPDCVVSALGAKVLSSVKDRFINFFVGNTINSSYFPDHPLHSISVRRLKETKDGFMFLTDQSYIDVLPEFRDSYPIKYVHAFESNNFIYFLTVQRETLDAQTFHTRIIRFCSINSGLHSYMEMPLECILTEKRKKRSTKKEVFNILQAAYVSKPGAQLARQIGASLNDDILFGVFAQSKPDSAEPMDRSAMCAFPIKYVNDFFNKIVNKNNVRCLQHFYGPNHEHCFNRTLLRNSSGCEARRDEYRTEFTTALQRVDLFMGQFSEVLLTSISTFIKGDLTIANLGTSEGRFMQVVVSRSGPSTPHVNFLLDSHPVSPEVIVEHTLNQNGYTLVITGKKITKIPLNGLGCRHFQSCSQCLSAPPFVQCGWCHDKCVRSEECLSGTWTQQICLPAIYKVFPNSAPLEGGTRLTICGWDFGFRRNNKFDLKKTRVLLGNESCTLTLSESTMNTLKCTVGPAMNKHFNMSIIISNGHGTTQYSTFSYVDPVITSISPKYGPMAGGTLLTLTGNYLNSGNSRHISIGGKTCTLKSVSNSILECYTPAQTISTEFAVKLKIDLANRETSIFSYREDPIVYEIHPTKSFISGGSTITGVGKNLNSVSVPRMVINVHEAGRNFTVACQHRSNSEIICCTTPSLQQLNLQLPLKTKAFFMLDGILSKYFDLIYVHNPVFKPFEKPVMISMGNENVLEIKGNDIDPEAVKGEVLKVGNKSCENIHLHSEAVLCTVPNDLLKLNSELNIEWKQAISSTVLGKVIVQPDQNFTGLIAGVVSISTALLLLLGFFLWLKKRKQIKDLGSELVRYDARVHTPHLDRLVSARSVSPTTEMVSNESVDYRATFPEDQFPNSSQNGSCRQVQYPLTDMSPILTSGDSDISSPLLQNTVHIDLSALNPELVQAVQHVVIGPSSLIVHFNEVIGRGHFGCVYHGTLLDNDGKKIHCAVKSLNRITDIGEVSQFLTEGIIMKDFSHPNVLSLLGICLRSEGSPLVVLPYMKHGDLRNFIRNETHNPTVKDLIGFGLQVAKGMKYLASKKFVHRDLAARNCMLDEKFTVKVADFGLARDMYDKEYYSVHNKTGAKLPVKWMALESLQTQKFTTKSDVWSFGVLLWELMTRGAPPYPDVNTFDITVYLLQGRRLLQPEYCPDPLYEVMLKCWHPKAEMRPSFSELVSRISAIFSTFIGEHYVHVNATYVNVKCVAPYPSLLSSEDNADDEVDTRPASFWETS

Legend:
[1] = target: c-Met, the receptor for Hepatocyte Growth Factor (HGF) (human (endogenous in SNU-449 and Mahlavu)) (UniProt P08581); assay: co-IP; Mahlavu whole cell lysates precipitated with anti-c-Met antibody, blotted for CAV1 and c-Met; serum-starved cells untreated or exposed to HGF for 15, 30 and 60 min; IgG as IP control
[2] = target: c-Met, the receptor for Hepatocyte Growth Factor (HGF) (human (endogenous in SNU-449 and Mahlavu)) (UniProt P08581); assay: co-IP; SNU-449 whole cell lysates (modified NP-40 buffer) precipitated with agarose-conjugated anti-c-Met antibody (sc-161 AC), blotted for CAV1 and c-Met; serum-starved cells untreated or exposed to HGF (40 ng/mL) for 15, 30 and 60 min; IgG as IP control

B1: Caveolin 1 (CAV1) (natural protein, UniProt Q03135 1-178, looked up)
chain: MSGGKYVDSEGHLYTVPIREQGNIYKPNNKAMADELSEKQVYDAHTKEIDLVNRDPKHLNDDVVKIDFEDVIAEPEGTHSFDGIWKASFTTFTVTKYWFYRLLSALFGIPMALIWGIYFAILSFLHIWAVVPCIKSFLIEIQCISRVYSIYVHTVCDPLFEAVGKIFSNVRINLQKEI
notes: detected by Western blot with an antibody to CAV1; Endogenous protein; the co-IP blot detects total CAV1; source: endogenous, Mahlavu whole cell lysate
[1]
  binding: binds
[2]
  binding: binds
